Among the data in publication doi:10.1101/551317 are binding values, retold here.

Amino acid sequences for entries named in this document (tags omitted). A change or cut given only in a name is not applied to a line headed by its entry.
UniProt B6EUB3: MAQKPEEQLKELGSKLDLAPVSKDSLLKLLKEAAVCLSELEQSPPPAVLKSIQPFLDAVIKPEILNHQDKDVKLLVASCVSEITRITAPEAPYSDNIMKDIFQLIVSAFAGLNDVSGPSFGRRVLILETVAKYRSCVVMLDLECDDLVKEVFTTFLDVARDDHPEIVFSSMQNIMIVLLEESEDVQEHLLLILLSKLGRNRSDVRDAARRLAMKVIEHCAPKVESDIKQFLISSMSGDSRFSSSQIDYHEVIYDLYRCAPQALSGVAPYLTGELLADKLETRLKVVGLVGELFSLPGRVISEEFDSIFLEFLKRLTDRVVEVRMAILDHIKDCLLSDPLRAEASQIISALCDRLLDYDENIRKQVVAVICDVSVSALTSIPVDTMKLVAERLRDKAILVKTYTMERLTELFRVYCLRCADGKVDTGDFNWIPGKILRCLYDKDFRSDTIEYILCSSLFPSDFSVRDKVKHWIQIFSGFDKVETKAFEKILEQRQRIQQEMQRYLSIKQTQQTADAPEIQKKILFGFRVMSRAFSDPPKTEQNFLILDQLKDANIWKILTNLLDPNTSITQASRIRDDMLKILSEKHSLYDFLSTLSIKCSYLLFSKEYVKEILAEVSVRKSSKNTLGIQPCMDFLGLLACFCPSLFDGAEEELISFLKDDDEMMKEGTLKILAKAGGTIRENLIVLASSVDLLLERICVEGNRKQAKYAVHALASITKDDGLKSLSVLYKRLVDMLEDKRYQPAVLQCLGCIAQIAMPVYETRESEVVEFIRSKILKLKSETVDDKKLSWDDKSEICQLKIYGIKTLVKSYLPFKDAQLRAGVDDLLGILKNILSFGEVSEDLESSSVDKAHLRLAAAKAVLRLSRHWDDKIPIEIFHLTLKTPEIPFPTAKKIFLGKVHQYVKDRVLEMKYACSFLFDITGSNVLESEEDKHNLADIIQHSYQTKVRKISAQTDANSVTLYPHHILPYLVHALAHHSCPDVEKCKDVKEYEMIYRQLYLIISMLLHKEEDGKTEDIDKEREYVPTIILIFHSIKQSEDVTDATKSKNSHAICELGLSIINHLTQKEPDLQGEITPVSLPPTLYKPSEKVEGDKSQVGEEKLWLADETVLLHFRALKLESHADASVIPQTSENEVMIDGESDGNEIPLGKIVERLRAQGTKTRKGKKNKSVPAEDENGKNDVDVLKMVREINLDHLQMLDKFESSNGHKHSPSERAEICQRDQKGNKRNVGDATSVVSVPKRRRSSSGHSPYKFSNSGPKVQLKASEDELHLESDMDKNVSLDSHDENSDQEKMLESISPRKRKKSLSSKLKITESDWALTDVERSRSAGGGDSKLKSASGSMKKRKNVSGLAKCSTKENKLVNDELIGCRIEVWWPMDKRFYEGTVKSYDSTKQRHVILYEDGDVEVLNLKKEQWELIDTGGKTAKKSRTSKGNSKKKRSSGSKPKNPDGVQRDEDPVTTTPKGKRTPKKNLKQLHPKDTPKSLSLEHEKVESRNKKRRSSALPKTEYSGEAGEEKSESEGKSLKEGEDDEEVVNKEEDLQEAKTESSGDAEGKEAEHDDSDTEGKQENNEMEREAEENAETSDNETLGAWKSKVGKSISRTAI
UniProt Q53KW9: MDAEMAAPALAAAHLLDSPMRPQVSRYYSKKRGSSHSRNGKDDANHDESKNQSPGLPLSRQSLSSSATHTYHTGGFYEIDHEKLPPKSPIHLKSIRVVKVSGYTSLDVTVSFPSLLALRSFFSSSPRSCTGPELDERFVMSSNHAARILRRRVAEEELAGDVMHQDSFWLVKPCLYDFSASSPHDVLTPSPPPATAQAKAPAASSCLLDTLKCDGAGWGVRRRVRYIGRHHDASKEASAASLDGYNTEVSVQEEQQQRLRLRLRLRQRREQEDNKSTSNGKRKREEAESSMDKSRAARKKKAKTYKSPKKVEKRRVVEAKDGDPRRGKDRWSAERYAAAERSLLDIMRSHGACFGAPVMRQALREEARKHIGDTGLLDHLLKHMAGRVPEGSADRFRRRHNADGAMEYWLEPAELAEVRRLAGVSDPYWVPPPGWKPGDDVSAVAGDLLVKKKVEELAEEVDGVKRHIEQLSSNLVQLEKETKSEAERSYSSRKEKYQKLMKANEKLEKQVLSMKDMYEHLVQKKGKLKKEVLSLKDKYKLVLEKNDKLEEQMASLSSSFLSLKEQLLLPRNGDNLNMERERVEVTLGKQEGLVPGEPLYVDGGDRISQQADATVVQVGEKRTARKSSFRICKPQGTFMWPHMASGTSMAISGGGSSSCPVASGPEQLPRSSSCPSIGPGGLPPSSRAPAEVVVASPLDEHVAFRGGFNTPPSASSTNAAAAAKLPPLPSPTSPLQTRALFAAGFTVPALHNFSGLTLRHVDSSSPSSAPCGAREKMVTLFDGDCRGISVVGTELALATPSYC

The target of assay [1] is Arabidopsis PDS5A, yeast two-hybrid fusion (limits not stated) (Arabidopsis thaliana) (UniProt B6EUB3). As to the kind of experiment: two-hybrid.
The target of assay [2] is PDS5A, BiFC fusion (Arabidopsis thaliana) (UniProt B6EUB3). The assay can be described thus: split reporter.
Assay [3] deals with C-terminus of PDS5A, BiFC fusion (Arabidopsis thaliana). As to the kind of experiment: split reporter.
Assay [4] deals with N-terminus of PDS5A, BiFC fusion (Arabidopsis thaliana). As to the kind of experiment: split reporter.
Assay [5] deals with PDS5A, BiFC fusion (Arabidopsis thaliana) (UniProt B6EUB3). The assay can be described thus: split reporter. This is another data set of the same source.
Assay [6] deals with Arabidopsis PDS5A, yeast two-hybrid fusion (limits not stated) (Arabidopsis thaliana) (UniProt B6EUB3). As to the kind of experiment: two-hybrid. This is another data set of the same source.
Assay [7] concerns the target PDS5A, BiFC fusion (Arabidopsis thaliana) (UniProt B6EUB3). As to the kind of experiment: split reporter. The source holds these as a separate data set.

Where two headings read alike, the source gives them in different places. Results are given in words; binding and its absence hold for the method and conditions named. For part of these data: A result given as binding can be weak or reduced; the word gives no strength. For part of these data: Where a sequence is shown, tags or fusion partners need not be part of it. For part of these data: Binding seen in cells or lysates may run through a third protein.

For the molecule “AMEIOTIC1 (AM1) from rice, yeast two-hybrid fusion (from UniProt Q53KW9)”, the binding entry in assay [1] is “binds”.

B1: WAPL1, BiFC fusion (protein, UniProt F4I7C7 1-930)
chain: MIIVKLTANRICCSLLQLRRSYEHFYIFVFLPEIPLFRFSHLKLFPKNLQIQRLVSAMMERTYGRRKPGIPRTLSDSLNDSVSQTEYLSSSSSPDIEPIDYSLLPFSSQESSSLWHSSSRSNFREDYPQNGGVVRRAKRVRNGAEAAAFTSTLLEAQEFGELMEHEDEVNFALDGLRKGHQLRIRRASLSSLLSICASQHQRRSLRAQGISQSIIDAILVLSLDDIPSNLAAATLFFALTADGQDEHFMESPKCIKFLIKLLKPVIVTSTEGKPRNIGFKLLSLLKDVDAARDPVKMDDPSSSDILSRVQELLVNCKEMRLNDSYITETTRPELSTKWVALLAMERACVSKISFDDTSGSVKKTGGNFKEKLRELGGLDAVLEVVMDCHAVMERWVEYDALSVQEKKDNLHKQSLMLLLKCLKIMENATFLSTDNQNHLLGFKKCLGSHDSRMSFTELTISVIKMLSGLHLRGGFSSPNTNNVNSHYSNGGNHDSVLEANRKVTNEVVTISSDTYSTVGSISTRNGSVSQRSQSIIHLDFSPTSMSGSQSSVSGNEPTTSKTRVGSTISGSFAGRLASLGSDIARTTLRTTQAGEPICKKFGEFAPPEESEDPFAFDLEDYKPSKWAVVSVNQKKSRAQKKKGCYKQSKDESLYQLFSSQEESSNHRLNSQEESSNRDCSTSLQPSHCTNDIDEECLCLLFDCLLTAVKVLMNLTNDNVVGCRQVGGCRGLESMAELIARHFPSFTRSQLFSEMEKTGSSHQKKDKYLTDQELDFLVAILGLLVNLVERDGVNRSRLASASVPITKPEELQESEQEMIPLLCSIFLTNQGSAETKEETTTFTLDDEEAVLEGEKEAEKMIVEAYSALLLAFLSTESRSIRNSIKDYLPKRNLAILVPVLERFVAFHMTLNMIPPETHKAVMGVIESCKSP
Regarding B1, the binding entry in assay [2] is on record as “binds”; in assay [3] it was “no binding”; in assay [4], “binds”; in assay [5], “binds”.

B2: AMEIOTIC1 (AM1) from maize, yeast two-hybrid fusion (protein, UniProt C0RWW9 1-780)
chain: MDVETVQAGPALAAHLQLQASPKPQVKKYYFKKKTSSSHSRNGKDDVNHDSTIQPRSPLSRQSLTFDAIPTYHAGAFYEIDHDKLPPKSPIHLKSIRVVKVSECTNLDITVKFPSLQALRSFFSSYPAPGTGPELDERFVMSSNHAARILRRRVTEEELEGEVQQDSFWLIKPRLYDFAAPQQVPSRTLCLPPPPAPPAATLGLTADSCLLTTLKCDGAGWGMRRRVRYIGRHRDEAPKEASVDGYDTESSVREVQQPPATQEVKRSERNCKRKREAEASSKDNNGDEGKKNNKVQGASKKISKKAKKRTVESKDGDPRHGKDRWSAERYAAAEKSLLNIMRSRDARFGAPVMRQVLREEARKHIGDTGLLDHLLKHMAGRVPEGSVHRFRRRHNADGAMEYWLEPAELAEVRKQAGVSDPYWVPPPGWKPGDDVSLVAGDILVKRQVEELTEEVNGVKRQMEQLLCKDDGDFGAERDYSSLKEKYQRAVRANEKLEKQVLCLKDMCENVVQMNGELKKEVSAFKEKYEHIADKNDKLEEQVTYLSSSFLSFKDQLVVALKLELAPSEAVPRTALFVASGEQMTGTVIQGGQDRAERKSSFRVCKPQGKFLLPSMASGMTIGRGASSTCPAAATPGPGIPRSTSFPSMPGLPRSSRGPVEVVAAASGLDEHVMFGAHFSTPPSASSTNDAAKLQLSLPSPRSPLQPQKLFDTVTAAASGFSPQKLMHFSGLTRRDVDTSSSSSGACGSGLLEGKRVLFDADAGGISAVGTELALATPSYC
With B2, in assay [6], the binding entry is given as “binds”.

B3: SWI1, BiFC fusion (protein, UniProt Q9FGN8 1-639)
chain: MSSTMFVKRNPIRETTAGKISSPSSPTLNVAVAHIRAGSYYEIDASILPQRSPENLKSIRVVMVSKITASDVSLRYPSMFSLRSHFDYSRMNRNKPMKKRSGGGLLPVFDESHVMASELAGDLLYRRIAPHELSMNRNSWGFWVSSSSRRNKFPRREVVSQPAYNTRLCRAASPEGKCSSELKSGGMIKWGRRLRVQYQSRHIDTRKNKEGEESSRVKDEVYKEEEMEKEEDDDDGNEIGGTKQEAKEITNGNRKRKLIESSTERLAQKAKVYDQKKETQIVVYKRKSERKFIDRWSVERYKLAERNMLKVMKEKNAVFGNSILRPELRSEARKLIGDTGLLDHLLKHMAGKVAPGGQDRFMRKHNADGAMEYWLESSDLIHIRKEAGVKDPYWTPPPGWKLGDNPSQDPVCAGEIRDIREELASLKRELKKLASKKEEEELVIMTTPNSCVTSQNDNLMTPAKEIYADLLKKKYKIEDQLVIIGETLRKMEEDMGWLKKTVDENYPKKPDSTETPLLLEDSPPIQTLEGEVKVVNKGNQITESPQNREKGRKHDQQERSPLSLISNTGFRICRPVGMFAWPQLPALAAATDTNASSPSHRQAYPSPFPVKPLAAKRPLGLTFPFTIIPEEAPKNLFNV
B3: the binding result in assay [2], in assay [7] and in assay [5] was “binds” throughout.
